Reference: article PMC10783494, “A conserved protein inhibitor brings under check the activity of RNase E in cyanobacteria”

What was measured:
[1] = tested on: RneN396 (RNase E catalytic core) (Anabaena PCC 7120); test: EMSA; settings: 2 mM EDTA, 5' monophosphate, 20 mM Tris-HCl pH 8.0, 200 mM NaCl, 0.1 mM DTT, 5% glycerol, 30 min at 30 C, recombinant protein, protein details: His tag (pET28a), label: 3' FAM
[2] = tested on: RneN412 (RNase E catalytic region) (Anabaena PCC 7120); test: EMSA; settings: positive control, 2 mM EDTA, 5' monophosphate, 20 mM Tris-HCl pH 8.0, 200 mM NaCl, 0.1 mM DTT, 5% glycerol, 1 mg/ml BSA, 30 min at 30 C, 5% native PAGE at 4 C, recombinant protein, label: 3' FAM

## GAGACAGUAUUUG [5' p-LU13-FAM]
[1]; RebA (P1) preincubated at >2-fold molar excess, 1 mg/ml …, 5% native PAGE at 4 C
  binding result: binds more weakly
[1]; no RebA, 1 mg/ml BSA, 5% native PAGE at …
  binding result: binds
[2]
  binding result: binds

The exact form of at least one protein or probe is not confirmed. For part of these data: Weaker means in comparison with the reference protein, sequence or condition of that experiment. At least one verdict was read from the data and is not stated in words by the source.
